# From PubChem BioAssay AID2685 (National Center for Advancing Translational Sciences (NCATS), 2010)
# The other results are listed elsewhere or left out. These are further read-outs of the screen, such as a control signal, another cell line or another target. No call is given for them. The list favours compounds with an active or inconclusive main result. The note in brackets gives the kind of curve behind each potency; many fits are weak.
# Experiment: qHTS Assay for Lipid Storage Modulators in Drosophila S3 Cells;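 for cell number change: cells counted by Cell Tracker Red CMTPX staining in the red channel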
# Conditions: BODIPY lipid droplet fluorescence, 18-24 h; for cell number change: measured here: cell count max response, cells fed with added oleic acid
# Procedure, shortened: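 Drosophila S3 cells loaded with oleic acid (400 uM, as added) and compounds at several concentrations; lipid droplets imaged by 488-nm laser-scanning cytometry, 500–530 nm intensity and object ratio to cell channel. Percent activity normalized to 20 uM Triacsin C.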
# [1] = measured here: cell number channel AC50, cells fed with added oleic acid
# [2] = measured here: lipid fluorescence (Fed channel) AC50, cells fed with added oleic acid
Structure (SMILES),cell number change [%],AC50 [1],AC50 [2]
COc1ccc(CC(=O)OCC(=O)Nc2cccc(Br)c2)cc1,17.1,–,–
O=C(CN1C(=O)NC2(CCCCC2)C1=O)Oc1ccc2c(C(F)(F)F)cc(=O)oc2c1,1.2,–,–
CC(C)CCN1C(=O)c2ccc(C(=O)Nc3cccc(S(N)(=O)=O)c3)cc2C1=O,-15.7,"0.184 µM [falling, partial curve]","0.058 µM [falling, full curve]"
Cc1cc(NCc2ccccc2)nc(-c2ccccc2O)n1,-34.8,"14.6 µM [falling, partial curve]","13 µM [falling, partial curve, poor fit]"
CC1(C)C(=O)OC(c2cccs2)C2(CCCCC2)C1=O (centres undefined),-5.47,–,–
CN(C)S(=O)(=O)c1ccc(N2CCCC2=O)c([N+](=O)[O-])c1,-5.75,"6.51 µM [rising, single point]","5.8 µM [falling, full curve]"
CCOc1ccc2nc(SCC(=O)Nc3ncccn3)[nH]c2c1,40.6,"7.31 µM [rising, partial curve, poor fit]","32.6 µM [falling, partial curve]"
Cc1cccc(-n2ncc3c2CCCC3NC(=O)C2=CC(=O)CC(C)(C)O2)c1C (centres undefined),-52,"5.17 µM [falling, full curve]","0.731 µM [falling, full curve]"
Cc1ccc(C)c(NS(=O)(=O)c2ccc3[nH]c(=O)[nH]c3c2)c1,34,"4.11 µM [rising, full curve, poor fit]","2.91 µM [rising, full curve]"
Cc1cnc(C(=O)Nc2ccc(C(=O)N3CCCCC3)cc2)cn1,16.8,–,"5.8 µM [rising, full curve, poor fit]"
C[C@@H](C(=O)NCCc1c[nH]c2ccccc12)[C@H]1C[C@]1(C)[C@H](NC(=O)OCc1ccccc1)c1ccccc1,-8.76,–,"0.651 µM [rising, full curve, poor fit]"
CCN1CCN(c2ccc(S(=O)(=O)N3CCCCC3)cc2NC(=O)c2ccc([N+](=O)[O-])s2)CC1,-28.1,"4.61 µM [falling, full curve, poor fit]","3.66 µM [falling, partial curve]"
CC(NC(=O)CSc1nnc(-c2cccnc2)n1N)c1ccccc1 (centres undefined),-13.4,–,"0.398 µM [rising, full curve]"
COC(=O)c1[nH]c2cccc(OC)c2c1NC(=O)CN1CCC(C(N)=O)(N2CCCCC2)CC1,-59.3,"9.2 µM [falling, partial curve, poor fit]","23.1 µM [falling, partial curve, poor fit]"
CCOc1ccc(NC(=O)Cn2nnc3c(cnn3-c3ccc(F)cc3)c2=O)cc1,-6.5,–,"16.4 µM [falling, partial curve]"
NC(=S)Nc1cccc2cc3ccccc3cc12,17.9,–,"18.4 µM [rising, single point]"
CC1CCCN(CCCNS(=O)(=O)c2ccc3c(c2)CCN3C(=O)C2CC2)C1 (centres undefined),16.9,–,"29.1 µM [rising, partial curve, poor fit]"
C=C(C)CN(CC)C(=O)CSc1nc(O)cc(=O)n1C1CCCC1,53.6,–,–
Cc1cc(=O)c2cccc(Br)c2[nH]1,16.2,–,"32.6 µM [rising, partial curve, poor fit]"
CC(=O)Nc1ccc(S(=O)(=O)N2CCc3ccccc3C2CC(=O)O)cc1 (centres undefined),19.2,–,–

# Just cell number change [%] (2 entries from above):
Structure (SMILES)	cell number change [%]
NC(=S)Nc1cccc2cc3ccccc3cc12	17.9
CC1CCCN(CCCNS(=O)(=O)c2ccc3c(c2)CCN3C(=O)C2CC2)C1 (centres undefined)	16.9

# Next part

Structure (SMILES),cell number change [%],AC50 [1],AC50 [2]
CC1(C)CC2CC(C)(CN2S(=O)(=O)c2cccc(C(=O)OCC(=O)NC(N)=O)c2)C1 (centres undefined),9,–,"6.51 µM [rising, single point]"
COc1ccc(NC(=S)N2CCc3ccccc3C2)cc1,–,"0.58 µM [rising, single point]","0.58 µM [rising, single point]"
CCOCCCn1c(=S)[nH]c2cc(C(=O)N3CCN(c4ccccc4)CC3)ccc2c1=O,-17.6,–,–
CCOc1ccc(CCNC(=O)C2CCC(=O)N2CCc2ccccc2)cc1OCC (centres undefined),30.7,"29.1 µM [rising, single point]","16.4 µM [rising, partial curve]"
CCCCc1ccc(C2C3=C(CC(C)(C)CC3=O)NC3=C2C(=O)c2ccccc23)cc1 (centres undefined),-31,"29.1 µM [falling, single point]",–
CC(C)c1ccc(NC(=O)C(c2ccccc2)N2CCN(C=O)CC2)cc1 (centres undefined),-2.97,–,"6.51 µM [falling, single point]"
COc1ccccc1/C=C1\SC(=S)N(CCC(=O)Nc2cccc(O)c2)C1=O,-19.9,–,"0.58 µM [rising, single point]"
Cc1ccc(CNC(=O)COC(=O)CCCOc2ccc(Cl)cc2Cl)cc1,0.994,–,"0.206 µM [falling, full curve, poor fit]"
N#CCOC(=O)c1c2c(nc3ccccc13)CCC2,49.1,"0.461 µM [rising, full curve, poor fit]","0.461 µM [rising, full curve]"
O=C(Nc1ncc(Cc2ccccc2)s1)C1CCCO1 (centres undefined),-21.6,–,"29.1 µM [falling, single point]"
COc1cc(/C=N\NC(=O)c2cccnc2)ccc1OC(=O)c1ccccc1Cl,-19,–,"1.46 µM [falling, partial curve]"
Cc1cc(NC(=O)CCC(=O)N(CCC(C)C)C(C(=O)NC2CCCC2)c2ccccc2C)no1 (centres undefined),9.46,–,"0.13 µM [rising, full curve]"
COc1ccc(N2CCN(C(=O)c3oc4c(c3C)C(=O)CCC4)CC2)cc1,11.8,–,–
CC(=O)Nc1ccc(Oc2ccc(NC(C)=O)c(NC(C)=O)c2)cc1,119,–,"29.1 µM [rising, single point]"
COc1ccc(CC(=O)N2N=C(C)CC2(O)C(F)(F)F)cc1 (centres undefined),4.6,–,"29.1 µM [rising, single point]"
CN(C)C=NC(=O)c1cccn1-c1ncc(C(F)(F)F)cc1Cl,-6.65,–,–
CC(C)C(c1nnnn1Cc1ccccc1)N1CCC(C(N)=O)CC1 (centres undefined),-30.9,"2.31 µM [falling, partial curve]","2.91 µM [falling, full curve, poor fit]"
COC(=O)c1ccccc1NC(=S)NC(=O)C1CCCCC1,15.4,–,"29.1 µM [rising, single point]"
Cc1ccc2nc(-c3ccncc3)[nH]c2c1,6.04,–,–
O=C(CSc1nccn(-c2ccc(F)c(Cl)c2)c1=O)NC1CCCC1,-10.8,"2.31 µM [rising, single point]",–

Structure (SMILES),cell number change [%],AC50 [1],AC50 [2]
O=C(CC(=O)c1ccccc1)Nc1cc(C(F)(F)F)ccc1Cl,5.68,–,"3.66 µM [rising, partial curve, poor fit]"
COc1ccccc1C(=O)Nc1ccnn1C1CCN(Cc2ncc[nH]2)CC1,-23.4,–,–
COc1ccc(OC)c(NC(=O)C2CCCCC2)c1,0.47,–,"20.6 µM [rising, partial curve]"
COc1ccc(C2=NN(C(=O)CSc3nc4ncc(Cl)cc4[nH]3)C(c3ccco3)C2)cc1 (centres undefined),9.65,–,–
CCOc1ccc(N=Cc2c(O)n(-c3cccc(C)n3)c(=O)c3ccccc23)cc1,-2.69,–,–
O=c1ccc2cc(S(=O)(=O)N3CCN(c4ccccc4)CC3)ccc2[nH]1,-16.7,–,"0.731 µM [rising, single point]"
CN1CCN(Cc2cc(COCc3ccccc3)c3cccnc3c2O)CC1,-14.3,–,"2.59 µM [falling, single point]"
NS(=O)(=O)c1ccc(NC(=O)Nc2ccc3c(c2)OCO3)cc1,–,–,"3.26 µM [rising, full curve]"
O=C(NC(=S)NCc1cccnc1)c1ccccc1,22.6,–,–
COc1ccccc1NC(=O)c1sc2ncn(CC(=O)Nc3ccccc3)c(=O)c2c1C,109,"20.6 µM [rising, partial curve]","6.51 µM [rising, single point]"
O=C(CCN1C(=O)CSc2ccccc21)Nc1cccc(C(F)(F)F)c1,3.19,–,"0.116 µM [rising, full curve, poor fit]"
CCOc1ccc2ccccc2c1C(=O)N1CCOCC1,-86.1,"29.1 µM [falling, single point]",–
Cc1nc(C(=O)NNC(=O)c2ccc(C(F)(F)F)cc2)cs1,-8.26,"0.00461 µM [falling, full curve, poor fit]",–
CC(C)(C)n1nc2c(c1NC(=O)Cc1ccccc1)CS(=O)(=O)C2,-51.3,"5.8 µM [falling, full curve]","5.8 µM [falling, full curve]"
CCNC(=S)Nc1cc(OCC)c(N2CCOCC2)cc1OCC,–,–,"0.517 µM [rising, full curve, poor fit]"
CC1=CC(C)(C)NC(=S)N1c1ccc2ccccc2c1,-47.9,"2.59 µM [falling, full curve]","16.4 µM [falling, single point]"
O=S(=O)(c1cccc(-c2csc(-c3ccccc3)n2)c1)N1CCOCC1,-36.2,"29.1 µM [falling, partial curve, poor fit]",–
CC(=O)c1ccc(NC(=O)NC2CCCc3ccccc32)cc1 (centres undefined),15.5,–,"3.55 µM [rising, single point]"
Cc1cc(N2CCC(N(C)C3CCCC3)CC2)nc2cc(O)ccc12,-16.3,–,"0.731 µM [falling, full curve]"
OCC1(Cc2ccccc2)CCN(Cc2ccccn2)CC1,-1.51,–,"0.0651 µM [falling, full curve, poor fit]"

# Part of the list above, set out differently.
Structure (SMILES) | cell number change [%] | AC50 [1] | AC50 [2]
O=C(CCN1C(=O)CSc2ccccc21)Nc1cccc(C(F)(F)F)c1 | 3.19 | – | 0.116 µM [rising, full curve, poor fit]
CCNC(=S)Nc1cc(OCC)c(N2CCOCC2)cc1OCC | – | – | 0.517 µM [rising, full curve, poor fit]
CC(=O)c1ccc(NC(=O)NC2CCCc3ccccc32)cc1 (centres undefined) | 15.5 | – | 3.55 µM [rising, single point]
